Experimental data reported in article PMC12804701.

Chains of the proteins cited; added tags and fusions are not shown. Lines headed by an entry give the natural chain unless they say otherwise; changes in a name come on top. Residues count along the entry.
UniProt P10591: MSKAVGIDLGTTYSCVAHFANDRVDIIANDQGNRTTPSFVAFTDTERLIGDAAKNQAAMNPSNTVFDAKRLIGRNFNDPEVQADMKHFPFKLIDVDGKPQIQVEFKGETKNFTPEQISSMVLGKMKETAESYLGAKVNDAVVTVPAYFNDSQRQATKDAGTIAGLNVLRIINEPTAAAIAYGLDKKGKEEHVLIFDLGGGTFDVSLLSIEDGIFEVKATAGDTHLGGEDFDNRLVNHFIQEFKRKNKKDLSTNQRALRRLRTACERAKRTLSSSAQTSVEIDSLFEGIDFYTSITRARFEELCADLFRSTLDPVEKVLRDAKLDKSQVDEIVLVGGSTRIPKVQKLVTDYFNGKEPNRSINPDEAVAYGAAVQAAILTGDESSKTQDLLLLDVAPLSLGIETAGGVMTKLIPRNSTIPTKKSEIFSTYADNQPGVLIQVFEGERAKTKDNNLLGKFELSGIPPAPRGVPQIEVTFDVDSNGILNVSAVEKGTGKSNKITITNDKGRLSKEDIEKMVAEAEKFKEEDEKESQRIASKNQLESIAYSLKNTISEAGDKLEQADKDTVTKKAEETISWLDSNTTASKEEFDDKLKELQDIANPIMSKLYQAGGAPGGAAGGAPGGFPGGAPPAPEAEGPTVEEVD
UniProt P11484: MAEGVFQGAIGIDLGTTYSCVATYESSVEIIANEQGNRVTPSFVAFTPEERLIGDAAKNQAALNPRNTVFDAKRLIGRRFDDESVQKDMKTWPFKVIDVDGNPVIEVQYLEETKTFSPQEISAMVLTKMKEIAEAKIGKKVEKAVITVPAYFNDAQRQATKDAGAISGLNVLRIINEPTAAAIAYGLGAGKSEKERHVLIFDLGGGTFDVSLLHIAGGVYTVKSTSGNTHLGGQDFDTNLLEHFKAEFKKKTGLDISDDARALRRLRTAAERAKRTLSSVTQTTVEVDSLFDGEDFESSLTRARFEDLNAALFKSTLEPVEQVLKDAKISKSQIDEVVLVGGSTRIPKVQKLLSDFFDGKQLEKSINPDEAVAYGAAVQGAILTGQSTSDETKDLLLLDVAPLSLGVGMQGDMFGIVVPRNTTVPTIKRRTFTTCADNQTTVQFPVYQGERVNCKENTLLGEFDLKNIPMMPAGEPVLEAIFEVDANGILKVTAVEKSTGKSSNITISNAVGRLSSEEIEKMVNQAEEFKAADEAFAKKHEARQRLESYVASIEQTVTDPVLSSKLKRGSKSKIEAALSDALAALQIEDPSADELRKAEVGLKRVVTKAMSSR
UniProt P0CS90, residues 24-654: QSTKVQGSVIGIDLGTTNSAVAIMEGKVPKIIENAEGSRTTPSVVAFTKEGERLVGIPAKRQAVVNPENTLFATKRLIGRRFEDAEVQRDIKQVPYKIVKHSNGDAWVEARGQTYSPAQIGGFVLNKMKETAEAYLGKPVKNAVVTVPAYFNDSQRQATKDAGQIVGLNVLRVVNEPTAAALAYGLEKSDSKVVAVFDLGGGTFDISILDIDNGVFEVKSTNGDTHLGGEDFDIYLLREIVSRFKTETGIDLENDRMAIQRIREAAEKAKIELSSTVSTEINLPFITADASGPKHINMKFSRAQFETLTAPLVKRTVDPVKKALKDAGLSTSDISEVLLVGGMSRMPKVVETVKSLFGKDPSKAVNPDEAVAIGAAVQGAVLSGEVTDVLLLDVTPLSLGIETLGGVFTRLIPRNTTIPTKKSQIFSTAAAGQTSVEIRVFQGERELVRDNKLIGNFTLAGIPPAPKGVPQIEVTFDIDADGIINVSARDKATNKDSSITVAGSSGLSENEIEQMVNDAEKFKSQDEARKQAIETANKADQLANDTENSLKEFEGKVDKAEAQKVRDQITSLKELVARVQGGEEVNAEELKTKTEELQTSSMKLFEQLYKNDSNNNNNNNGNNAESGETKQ
UniProt P16474, residues 43-682: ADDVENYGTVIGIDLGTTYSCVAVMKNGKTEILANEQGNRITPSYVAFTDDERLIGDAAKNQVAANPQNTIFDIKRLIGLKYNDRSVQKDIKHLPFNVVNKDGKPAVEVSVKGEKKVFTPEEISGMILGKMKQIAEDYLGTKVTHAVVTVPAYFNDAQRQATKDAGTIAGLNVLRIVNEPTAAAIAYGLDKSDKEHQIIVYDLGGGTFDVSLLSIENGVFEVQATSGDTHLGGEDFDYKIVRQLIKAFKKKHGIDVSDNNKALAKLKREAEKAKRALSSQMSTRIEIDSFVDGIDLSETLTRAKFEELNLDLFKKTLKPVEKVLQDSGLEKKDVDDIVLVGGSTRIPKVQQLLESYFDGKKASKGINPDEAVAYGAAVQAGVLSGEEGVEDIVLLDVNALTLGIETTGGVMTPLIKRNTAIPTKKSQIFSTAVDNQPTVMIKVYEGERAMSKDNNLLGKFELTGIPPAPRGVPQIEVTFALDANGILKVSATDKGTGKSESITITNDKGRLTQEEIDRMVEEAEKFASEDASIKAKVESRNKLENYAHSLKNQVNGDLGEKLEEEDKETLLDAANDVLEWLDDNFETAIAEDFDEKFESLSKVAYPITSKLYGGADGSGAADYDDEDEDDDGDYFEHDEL
UniProt P25491: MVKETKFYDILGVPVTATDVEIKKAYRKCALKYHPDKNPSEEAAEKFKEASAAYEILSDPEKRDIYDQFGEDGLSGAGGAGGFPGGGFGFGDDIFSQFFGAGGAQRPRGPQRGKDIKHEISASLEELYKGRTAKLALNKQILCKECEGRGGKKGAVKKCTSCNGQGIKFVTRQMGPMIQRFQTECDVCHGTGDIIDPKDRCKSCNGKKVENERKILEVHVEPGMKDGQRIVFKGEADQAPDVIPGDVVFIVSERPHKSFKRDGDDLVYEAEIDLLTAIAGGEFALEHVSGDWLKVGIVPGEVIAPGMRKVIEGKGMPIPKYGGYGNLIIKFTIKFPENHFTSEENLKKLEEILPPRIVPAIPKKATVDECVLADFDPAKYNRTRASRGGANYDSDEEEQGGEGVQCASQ
UniProt P04147: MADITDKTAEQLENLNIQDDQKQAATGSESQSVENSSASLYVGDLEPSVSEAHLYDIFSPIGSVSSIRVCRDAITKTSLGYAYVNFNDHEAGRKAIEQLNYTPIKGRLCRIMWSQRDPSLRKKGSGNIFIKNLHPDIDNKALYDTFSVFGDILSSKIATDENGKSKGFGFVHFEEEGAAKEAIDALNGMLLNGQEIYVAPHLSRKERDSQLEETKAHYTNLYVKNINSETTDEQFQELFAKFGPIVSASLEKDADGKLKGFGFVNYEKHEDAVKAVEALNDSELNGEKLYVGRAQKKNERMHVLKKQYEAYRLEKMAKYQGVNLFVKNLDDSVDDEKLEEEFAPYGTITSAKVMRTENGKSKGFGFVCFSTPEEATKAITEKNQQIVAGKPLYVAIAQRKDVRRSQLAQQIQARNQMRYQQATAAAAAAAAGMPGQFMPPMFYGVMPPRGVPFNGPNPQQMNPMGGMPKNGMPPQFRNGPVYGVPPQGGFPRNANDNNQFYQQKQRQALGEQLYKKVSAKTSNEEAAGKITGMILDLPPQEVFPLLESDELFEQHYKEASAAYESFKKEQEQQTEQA
UniProt P19882, residues 26-572: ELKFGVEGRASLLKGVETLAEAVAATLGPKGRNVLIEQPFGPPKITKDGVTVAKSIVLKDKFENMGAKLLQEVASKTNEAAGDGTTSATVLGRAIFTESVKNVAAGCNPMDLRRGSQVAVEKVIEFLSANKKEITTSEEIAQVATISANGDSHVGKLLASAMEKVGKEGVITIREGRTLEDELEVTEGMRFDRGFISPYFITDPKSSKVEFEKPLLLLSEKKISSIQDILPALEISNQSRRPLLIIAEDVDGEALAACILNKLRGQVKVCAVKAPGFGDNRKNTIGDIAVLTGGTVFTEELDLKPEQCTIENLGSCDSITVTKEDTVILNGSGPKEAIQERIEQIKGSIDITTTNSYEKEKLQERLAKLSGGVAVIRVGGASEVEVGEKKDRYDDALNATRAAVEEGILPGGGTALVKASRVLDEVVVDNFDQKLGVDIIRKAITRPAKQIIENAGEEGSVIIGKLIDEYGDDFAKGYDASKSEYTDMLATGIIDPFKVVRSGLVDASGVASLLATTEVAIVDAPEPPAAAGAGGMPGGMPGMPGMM

Columns and labels:
[1] = target: FLAG-tagged Ssa1 (wild type) (budding yeast) (UniProt P10591); test: affinity purification with mass spectrometry; Ssa1 complexes (WT or T492A) immunoprecipitated from heat-shocked yeast; three biological replicates each; eluted from beads with 8 M urea; LC-MS/MS; data normalized on Ssa1
[2] = target: FLAG-tagged Ssa1-T492A (budding yeast) (UniProt P10591); test: as above

binding [1]	binding [2]	Molecule
binds	binds	Ssb1 (from UniProt P11484 1-613)
binds	binds	Ssc1 (from UniProt P0CS90 24-654)
binds	binds	Kar2 (from UniProt P16474 43-682)
binds		Ydj1 (from UniProt P25491 1-409)
binds	binds	Poly-A-binding protein (Pab1) (from UniProt P04147 1-577)
binds	binds	Hsp60 (from UniProt P19882 26-572)
binds	binds	Sgt2 (protein, UniProt Q12118 1-346) MSASKEEIAALIVNYFSSIVEKKEISEDGADSLNVAMDCISEAFGFEREAVSGILGKSEFKGQHLADILNSASRVPESNKKDDAENVEINIPEDDAETKAKAEDLKMQGNKAMANKDYELAINKYTEAIKVLPTNAIYYANRAAAHSSLKEYDQAVKDAESAISIDPSYFRGYSRLGFAKYAQGKPEEALEAYKKVLDIEGDNATEAMKRDYESAKKKVEQSLNLEKTVPEQSRDADVDASQGASAGGLPDLGSLLGGGLGGLMNNPQLMQAAQKMMSNPGAMQNIQKMMQDPSIRQMAEGFASGGGTPNLSDLMNNPALRNMAGNLFGGAGAQSTDETPDNENKQ
binds	binds	Sti1 (protein, UniProt P15705 1-589) MSLTADEYKQQGNAAFTAKDYDKAIELFTKAIEVSETPNHVLYSNRSACYTSLKKFSDALNDANECVKINPSWSKGYNRLGAAHLGLGDLDEAESNYKKALELDASNKAAKEGLDQVHRTQQARQAQPDLGLTQLFADPNLIENLKKNPKTSEMMKDPQLVAKLIGYKQNPQAIGQDLFTDPRLMTIMATLMGVDLNMDDINQSNSMPKEPETSKSTEQKKDAEPQSDSTTSKENSSKAPQKEESKESEPMEVDEDDSKIEADKEKAEGNKFYKARQFDEAIEHYNKAWELHKDITYLNNRAAAEYEKGEYETAISTLNDAVEQGREMRADYKVISKSFARIGNAYHKLGDLKKTIEYYQKSLTEHRTADILTKLRNAEKELKKAEAEAYVNPEKAEEARLEGKEYFTKSDWPNAVKAYTEMIKRAPEDARGYSNRAAALAKLMSFPEAIADCNKAIEKDPNFVRAYIRKATAQIAVKEYASALETLDAARTKDAEVNNGSSAREIDQLYYKASQQRFQPGTSNETPEETYQRAMKDPEVAAIMQDPVMQSILQQAQQNPAALQEHMKNPEVFKKIQTLIAAGIIRTGR
binds		Lhs1 (protein, UniProt P36016 21-881) AVLGVDYGQQNIKAIVVSPQAPLELVLTPEAKRKEISGLSIKRLPGYGKDDPNGIERIYGSAVGSLATRFPQNTLLHLKPLLGKSLEDETTVTLYSKQHPGLEMVSTNRSTIAFLVDNVEYPLEELVAMNVQEIANRANSLLKDRDARTEDFVNKMSFTIPDFFDQHQRKALLDASSITTGIEETYLVSEGMSVAVNFVLKQRQFPPGEQQHYIVYDMGSGSIKASMFSILQPEDTTQPVTIEFEGYGYNPHLGGAKFTMDIGSLIENKFLETHPAIRTDELHANPKALAKINQAAEKAKLILSANSEASINIESLINDIDFRTSITRQEFEEFIADSLLDIVKPINDAVTKQFGGYGTNLPEINGVILAGGSSRIPIVQDQLIKLVSEEKVLRNVNADESAVNGVVMRGIKLSNSFKTKPLNVVDRSVNTYSFKLSNESELYDVFTRGSAYPNKTSILTNTTDSIPNNFTIDLFENGKLFETITVNSGAIKNSYSSDKCSSGVAYNITFDLSSDRLFSIQEVNCICQSENDIGNSKQIKNKGSRLAFTSEDVEIKRLSPSERSRLHEHIKLLDKQDKERFQFQENLNVLESNLYDARNLLMDDEVMQNGPKSQVEELSEMVKVYLDWLEDASFDTDPEDIVSRIREIGILKKKIELYMDSAKEPLNSQQFKGMLEEGHKLLQAIETHKNTVEEFLSQFETEFADTIDNVREEFKKIKQPAYVSKALSTWEETLTSFKNSISEIEKFLAKNLFGEDLREHLFEIKLQFDMYRTKLEEKLRLIKSGDESRLNEIKKLHLRNFRLQKRKEEKLKRKLEQEKSRNNNETESTVINSADDKTTIVNDKTTESNPSSEEDILHDEL
binds	binds	Edc3 (protein, UniProt P39998 1-551) MSQFVGFGVQVELKDGKLIQGKIAKATSKGLTLNDVQFGDGGKSQAFKVRASRLKDLKVLTVASQSGKRKQQRQQQQQNDYNQNRGEHIDWQDDDVSKIKQQEDFDFQRNLGMFNKKDVFAQLKQNDDILPENRLQGHNRKQTQLQQNNYQNDELVIPDAKKDSWNKISSRNEQSTHQSQPQQDAQDDLVLEDDEHEYDVDDIDDPKYLPITQSLNITHLIHSATNSPSINDKTKGTVINDKDQVLAKLGQMIISQSRSNSTSLPAANKQTTIRSKNTKQNIPMATPVQLLEMESITSEFFSINSAGLLENFAVNASFFLKQKLGGRARLRLQNSNPEPLVVILASDSNRSGAKALALGRHLCQTGHIRVITLFTCSQNELQDSMVKKQTDIYKKCGGKIVNSVSSLESAMETLNSPVEIVIDAMQGYDCTLSDLAGTSEVIESRIKSMISWCNKQRGSTKVWSLDIPNGFDAGSGMPDIFFSDRIEATGIICSGWPLIAINNLIANLPSLEDAVLIDIGIPQGAYSQRTSLRKFQNCDLFVTDGSLLLDL
binds		Sse2 (protein, UniProt P32590 1-693) MSTPFGLDLGNNNSVLAVARNRGIDVVVNEVSNRSTPSLVGFGPRNRYLGESGKTKQTSNVKNTVENLKRIIGLKFKDPEFDIENKFFTSKLVQLKNGKVGVEVEFGGKTHVFSATQLTAMFIDKVKHTVQEETKSSITDVCLAVPVWYSEEQRYNIADAARIAGLNPVRIVNDVTAAAVSYGVFKNDLPGPEEKPRIIGLVDIGHSTYTCSIMAFRKGEMKVLGTAYDKHFGGRDFDRAITEHFADQFKDKYKIDIRKNPKAYNRILIAAEKLKKVLSANTTAPFSVESVMDDIDVSSQLSREELEELVEPLLKRVTYPITNALAQAKLTVNDIDFVEIIGGTTRIPVLKKSISDVFGKPLSSTLNQDEAVAKGAAFICAIHSPTLRVRPFKFEDIDPYSVSYTWDKQVDDEDRLEVFPANSSYPSTKLITLHRTGDFSMKAVYTHPSKLPKGTSTTIAKWSFTGVKVPKDQDFIPVKVKLRCDPSGLHIIENAYTTEDITVQEPVPLPEDAPEDAEPQFKEVTKTIKKDVLGMTAKTFALNPVELNDLIEKENELRNQDKLVAETEDRKNALEEYIYTLRAKLDDEYSDFASDAEKEKLKNMLATTENWLYGDGDDSTKAKYIAKYEELASLGNIIRGRYLAKEEEKRQALRANQETSKMNDIAEKLAEQRRARAASDDSDDNNDENMDLD
binds		Fes1 (protein, UniProt P38260 1-290) MEKLLQWSIANSQGDKEAMARAGQPDPKLLQQLFGGGGPDDPTLMKESMAVIMNPEVDLETKLVAFDNFEMLIENLDNANNIENLKLWEPLLDVLVQTKDEELRAAALSIIGTAVQNNLDSQNNFMKYDNGLRSLIEIASDKTKPLDVRTKAFYALSNLIRNHKDISEKFFKLNGLDCIAPVLSDNTAKPKLKMRAIALLTAYLSSVKIDENIISVLRKDGVIESTIECLSDESNLNIIDRVLSFLSHLISSGIKFNEQELHKLNEGYKHIEPLKDRLNEDDYLAVKYVL

Results are given in words; binding and its absence hold for the method and conditions named. In cells and extracts the contact can be indirect. Here binding means that the protein was enriched with, or labelled near, the bait; the list need not be complete.
